In all, about 1,600 compounds were measured (“Hit score”: median about 0.13, highest 2% from about 0.46 on). Some of the results follow.

The experiment concerns SARS-CoV-2. As to the kind of experiment: Antiviral activity against SARS-CoV-2 (USA-WA1/2020 strain) measured by imaging in HRCE cells at MOI 0.4 after 96 hrs (reported as hit score from 0-1 for on-disease vs off-disease activity: scores >0.6 considered hits). The experiment is classed as functional, Homo sapiens.
On to `CN(C)CCCN1c2ccccc2Sc2ccc(C(F)(F)F)cc21` [TRIFLUPROMAZINE], for which the Hit score is on record as -0.07276.

With `Nc1c(CC(=O)O)cccc1C(=O)c1ccccc1` [AMFENAC], the Hit score is reported as 0.1058.

For `COc1ccc([C@@H]2CC(=O)c3c(O)cc(O)cc3O2)cc1O` [HESPERETIN], the Hit score is recorded as 0.1002.

As to `Cc1cc(-c2ccc(/N=N/c3ccc4c(S(=O)(=O)[O-])cc(S(=O)(=O)[O-])c(N)c4c3O)c(C)c2)ccc1/N=N/c1ccc2c(S(=O)(=O)[O-])cc(S(=O)(=O)[O-])c(N)c2c1O.[Na+].[Na+].[Na+].[Na+]` [EVANS BLUE], the Hit score turned out to be 0.2486.

In turn, `CCOC(=O)c1cc(C#N)c(N2CCC(C(=O)NS(=O)(=O)Cc3ccccc3)CC2)nc1C` showed a Hit score of 0.3229.

The molecule `CC(N/C(=N\C#N)Nc1ccncc1)C(C)(C)C` (stereo not given) [PINACIDIL ANHYDROUS] registered a Hit score of 0.1708.

The molecule `CC1(C)OC(=O)C(OCC2CC2)=C1c1ccc(S(C)(=O)=O)cc1` [FIROCOXIB] displayed a Hit score of 0.09893.

For `CCN(CC)CCOC(=O)C1(C2CCCCC2)CCCCC1` [DICYCLOMINE], the Hit score turned out to be 0.1568.

Take `CCCCOCCOCCOCc1cc2c(cc1CCC)OCO2` [PIPERONYL BUTOXIDE]: the Hit score was determined as 0.1894.

`C[N+]1(C)[C@@H]2CC[C@H]1C[C@@H](OC(=O)C(O)c1ccccc1)C2.[Br-]` (stereo not given in full) [HOMATROPINE METHYLBROMIDE] gave a Hit score of 0.03421.

On to `CC(=O)Oc1ccccc1C(=O)Nc1ncc([N+](=O)[O-])s1` [NITAZOXANIDE], for which the Hit score is 0.4584.

As to `Cl.Cl.c1ccc(C(NCCNC(c2ccccc2)c2ccccc2)c2ccccc2)cc1`, the Hit score is -0.03001.

In the case of `O=C(Nc1ccc(Cl)cc1)Nc1ccc(Cl)c(Cl)c1` [TRICLOCARBAN], the Hit score is given as 0.4616.

Consider `CC[N+](C)(CC)CCOC(=O)C(O)(c1ccccc1)C1CCCCC1` (stereo not given) [OXYPHENONIUM], for which the Hit score is recorded as 0.1874.

With `COc1cc(C(=O)OCCCN2CCCN(CCCOC(=O)c3cc(OC)c(OC)c(OC)c3)CC2)cc(OC)c1OC` [DILAZEP], the Hit score is 0.1035.

The molecule `O=C(O)c1cn(-c2ccc(F)cc2)c2cc(N3CCNCC3)c(F)cc2c1=O` [SARAFLOXACIN] returned a Hit score of 0.1378.

Molecule `O=C(O)Cc1ccc(-c2ccccc2)cc1` [FELBINAC] yielded a Hit score of 0.2446.

With `O=C(NC[C@H]1CN(c2ccc(N3CCOCC3=O)cc2)C(=O)O1)c1ccc(Cl)s1` [RIVAROXABAN], the Hit score was determined as 0.01318.

`Cc1nnc(C(=O)NC(C)(C)c2nc(C(=O)NCc3ccc(F)cc3)c(O)c(=O)n2C)o1` yielded a Hit score of 0.0199.

The molecule `CCCC(=O)O[C@]1(C(=O)COC(C)=O)CC[C@H]2[C@@H]3C[C@H](F)C4=CC(=O)C=C[C@]4(C)[C@@]3(F)[C@@H](O)C[C@@]21C` [DIFLUPREDNATE] registered a Hit score of 0.1389.

The record behind these values is ChEMBL document CHEMBL4303122, “Identification of potential treatments for COVID-19 through artificial intelligence-enabled phenomic analysis of human cells infected with SARS-CoV-2” (2020).
